This passage reports binding results from patent US6410245B1, “Compositions and methods for detecting ligand-dependent nuclear receptor and coactivator interactions” (priority 1998, dated 2002).

Chains of the proteins cited; added tags and fusions are not shown. Residues count along the entry.
UniProt Q92731, residues 248-530: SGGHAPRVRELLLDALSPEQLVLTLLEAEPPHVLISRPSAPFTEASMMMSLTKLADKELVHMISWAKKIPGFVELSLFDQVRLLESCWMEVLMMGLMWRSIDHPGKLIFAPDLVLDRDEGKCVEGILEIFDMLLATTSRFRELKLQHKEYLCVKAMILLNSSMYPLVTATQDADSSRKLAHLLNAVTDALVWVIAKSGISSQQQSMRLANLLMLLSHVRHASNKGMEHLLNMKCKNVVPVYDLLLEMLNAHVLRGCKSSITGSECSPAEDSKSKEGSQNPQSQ

The labels stand for the following.
B1: SEQ ID NO 40 (peptide, not shown: large carriers)
chain: GTGGSMLLWYLSKDH
B2: SEQ ID NO 29 (peptide, not shown: large carriers)
chain: GPQTSLLWKMLAER
B3: SEQ ID NO 26 (peptide, not shown: large carriers)
chain: LRGRQPMLRGLLCRSEVRR
B4: SEQ ID NO 35 (peptide, not shown: large carriers)
chain: GSLLESLLRSRDG
B5: SEQ ID NO 28 (peptide, not shown: large carriers)
chain: DTRMTILLRLLTNQS
B6: SEQ ID NO 34 (peptide, not shown: large carriers)
chain: GRGLLLELLTRGDNA
B7: SEQ ID NO 24 (peptide, not shown: large carriers)
chain: KDSRAHLLRDVLVMKSE
B8: SEQ ID NO 32 (peptide, not shown: large carriers)
chain: LLLKLLQRNP
B9: SEQ ID NO 38 (peptide, not shown: large carriers)
chain: WGSSLLVTYLTQREM
B10: SEQ ID NO 27 (peptide, not shown: large carriers)
chain: ESCHRSLLHSLLLT
B11: SEQ ID NO 37 (peptide, not shown: large carriers)
chain: ESVLLRLLRMDATRV
B12: SEQ ID NO 23 (peptide, not shown: large carriers)
chain: LCSTRPLLYRLLLSKGCNW
B13: SEQ ID NO 36 (peptide, not shown: large carriers)
chain: ERLPGRLLWRMLMER
B14: SEQ ID NO 33 (peptide, not shown: large carriers)
chain: NLLMRYLMAKSDGVS
B15: SEQ ID NO 31 (peptide, not shown: large carriers)
chain: SILLNLLTRKDHQWRN
B16: SEQ ID NO 39 (peptide, not shown: large carriers)
chain: QMGGPLLWAYLIGPL
B17: SEQ ID NO 30 (peptide, not shown: large carriers)
chain: ECSSWLLHYLRSRDS
B18: SEQ ID NO 25 (peptide, not shown: large carriers)
chain: GSKHGVLLRHLLRRVEESR

No constants are given. Whether binding was seen depends on the method and setting. Some binding calls cover weakened binding; strength is not graded here.

The experiment deals with GST-ERβ (human) (UniProt Q92731). In words: fourth round selectants of ERβ panning as MBP fusions, ELISA on ERβ with and without estradiol. (In general: ELISA stands for enzyme-linked immunosorbent assay.)
B1: the binding entry is recorded as “binds”.
As for B2, the entry is “binds”; as for B3, “binds”.
With B4, the binding entry is reported as “binds”.
As for B5, the entry is “binds”; as for B6, “binds”.
Next, B7: “binds”.
As for B8, the entry is “binds”; as for B9, “binds”; as for B10, “binds”.
As for B11, the binding entry was “binds”.
As for B12, the entry is “binds”.
Take B13: the binding entry is on record as “binds”.
In the case of B14, the binding result is “binds”.
As for B15, the entry is “binds”.
As for B16, the entry is “binds”; as for B17, “binds”; as for B18, “binds”.
